Reference: PubChem BioAssay AID504834 (National Center for Advancing Translational Sciences (NCATS), 2011)
About 22,000 (6.9%) of roughly 320,000 compounds were called active. The shares of active, inactive and inconclusive entries below differ from those in the screen. Calls come from the whole dose curve; as a rule, active = well fitted inhibition curve with a large enough effect; inconclusive = small, poorly fitted or top-dose-only effect, or another doubt; inactive = no such curve, though single readings can be large or run the other way. Potencies beside an inconclusive call are fits to weak or partial responses and may not hold up.

assay: Primary qHTS for delayed death inhibitors of the malarial parasite plastid, 96 hour incubation; details: P. falciparum luciferase reporter growth; series mostly up to 28.7 µM; activity change, negative = inhibition: at the top concentration
How it was run: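 Two parasite generations (96 h, 37 C, 5% CO2) of compound exposure in infected erythrocytes (0.05% parasitemia, 2% hematocrit). Luciferase-reporter P. falciparum; decreased luminescence indicates inhibited growth, aimed at apicoplast-acting delayed death.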
% is set by controls: 0 for no effect and ±100 for the full control effect; potency is the fitted concentration of half-maximal effect.

| Structure (SMILES) | Potency | activity change, negative = inhibition |
| --- | --- | --- |
| Cc1ccc2c(CC(=O)NNC(=O)c3ccccc3O)coc2c1 | inconclusive: 18.5 µM [inhibitor, partial curve, poor fit] | – |
| COc1ccc(C(=O)NNC(=O)c2ccccc2[N+](=O)[O-])cc1 | active: 13.1 µM | – |
| CC1=CC(C)(C)Nc2cc(C)c(C)cc21 | inconclusive: 14.7 µM [inhibitor, partial curve, poor fit] | – |
| CCOc1ccc2[nH]c3c(N4CCN(C(=O)c5ccco5)CC4)ncnc3c2c1 | active: 11.7 µM | – |
| CCC1S/C(=C(\C#N)C(=O)NCc2ccco2)N(c2ccc(F)cc2)C1=O (centres undefined) | inconclusive: 0.0165 µM [inhibitor, full curve, poor fit] | – |
| Cc1ccccc1N1CCN(C2CCCN(C(=O)c3snnc3C)C2)CC1 (centres undefined) | – | inactive: -3.59% |
| CSc1nc(NCC(C)C)c2c3c(sc2n1)CN(C)CC3 | active: 3.29 µM | – |
| Cc1cc(N(CCO)CCO)ccc1C(c1ccc(N(CCO)CCO)cc1C)c1ccccc1Cl | inconclusive: 13.1 µM [inhibitor, single point] | – |
| CCOC(=O)c1c(CSc2ccccc2)n(C)c2ccc(O)c(CN3CCOCC3)c12 | inconclusive: 11.7 µM [inhibitor, partial curve, poor fit] | – |
| O=C(CSc1ncn(-c2ccccc2)n1)Nc1ccc2c(c1)OCO2 | inconclusive: 11.7 µM [inhibitor, partial curve, poor fit] | – |
| CN(C)C1(CNC(=O)C2CCC(=O)N(CCc3ccc(Cl)cc3)C2)CCCCC1 (centres undefined) | – | inactive: -28.8% |
| CC(=O)c1ccc(N2CCN(C(=O)/C=C/c3ccc(S(=O)(=O)NCc4ccco4)cc3)CC2)cc1 | inconclusive: 11.7 µM [inhibitor, single point] | – |
| O=[N+]([O-])c1ccc(N(c2ccccc2)c2ccccc2)cc1 | inconclusive: 0.0738 µM [inhibitor, full curve, poor fit] | – |
| Cc1cc(C)nc(SCCn2c(N3CCOCC3)nc3c2c(=O)[nH]c(=O)n3C)n1 | inconclusive: 4.15 µM [inhibitor, full curve, poor fit] | – |
| COc1ccccc1NC(=O)CN1CCN(CC(=O)Nc2ccc(F)cc2)CC1 | inconclusive: 18.5 µM [inhibitor, single point] | – |
| N#CC1=C(N)Oc2n[nH]c(-c3cccs3)c2C1C1C=CCCC1 (centres undefined) | inconclusive: 13.1 µM [inhibitor, partial curve, poor fit] | – |
| O=C(OCc1ccccc1)C1=NNC2C(=O)N(c3ccc(Br)cc3)C(=O)C12 (centres undefined) | – | inactive: 51% |
| CCCN1CCc2c(sc(NC(=O)CCS(=O)(=O)c3ccccc3)c2C(=O)OC)C1 | active: 13.1 µM | – |
| COC(CNC(=O)C(=O)NCC1CCCN1S(=O)(=O)c1cccs1)OC (centres undefined) | – | inactive: 1.52% |
| CCCC(=O)N1CC(=O)Nc2ccc(C)cc2C1c1ccc(F)cc1 (centres undefined) | inconclusive: 3.29 µM [inhibitor, partial curve] | – |
| Cc1ccc(C)c(NC(=O)C2Cc3ccccc3CN2C(=O)OCc2ccccc2)c1 (centres undefined) | inconclusive: 13.1 µM [inhibitor, partial curve] | – |
| Cc1ccc(NC(=O)C2CCCN2C(=O)Oc2ccccc2)c(C)c1 (centres undefined) | inconclusive: 0.0294 µM [inhibitor, full curve, poor fit] | – |
| CC(=O)N1c2ccc(S(=O)(=O)NCCC(=O)N3CCC(C)CC3)cc2CC1C (centres undefined) | – | inactive: 19.6% |

| Structure (SMILES) | Potency | activity change, negative = inhibition |
| --- | --- | --- |
| CC1CCCN(S(=O)(=O)c2ccc3[nH]c4c(c3c2)CCCC4)C1 (centres undefined) | inconclusive: 1.04 µM [inhibitor, partial curve, poor fit] | – |
| CC1=NN(C(N)=S)C(=O)C1N=Nc1ccc([N+](=O)[O-])cc1 (centres undefined) | – | inactive: 465% |
| O=C(COC(=O)CSc1ccc([N+](=O)[O-])cc1)NCCC1=CCCCC1 | – | inactive: -3.03% |
| CC1(C)CC(=O)c2cc(OCC(=O)N3CCCCCC3)ccc2O1 | active: 13.1 µM | – |
| CCOC(=O)N1CCN(C(=O)/C(=C/c2ccc(OC)cc2)NC(=O)c2ccccc2)CC1 | inconclusive: 1.04 µM [inhibitor, full curve] | – |
| c1ccc([C@H]2CN3C(=N2)Sc2ccccc23)cc1 | – | inactive: 124% |
| CCc1ccc(/C=N/NC(=O)c2c[nH]c3ccccc23)s1 | inconclusive: 18.5 µM [inhibitor, single point] | – |
| Cc1cn(-c2cc(C(=O)Nc3ccc(C)c(NC(=O)C(=O)c4c[nH]c5ccccc45)c3)cc(C(F)(F)F)c2)cn1 | inconclusive: 0.738 µM [inhibitor, full curve, poor fit] | – |
| O=[N+]([O-])c1cc(S(=O)(=O)Nc2ccccc2)ccc1-n1nnc2ccccc21 | inconclusive: 9.28 µM [inhibitor, single point] | – |
| COc1cccc(CNC(=O)Cn2ccc3cc(S(=O)(=O)N4CCCCCC4)ccc32)c1OC | inconclusive: 6.57 µM [inhibitor, partial curve] | – |
| O=C(COc1ccccc1)NCc1cccs1 | – | inactive: 31.6% |
| C/C(=N\NC(=O)CN(c1ccccc1Br)S(C)(=O)=O)c1ccc2c(c1)OCCO2 | inconclusive: 10.4 µM [inhibitor, single point] | – |
| CCCCOc1ccc2c(C)cc(=O)oc2c1OCCCC | inconclusive: 10.4 µM [inhibitor, partial curve, poor fit] | – |
| CCOC(=O)N1CCC(NC(=O)c2cc(C(=O)NC3CCN(Cc4ccccc4)CC3)ccc2CO)CC1 | active: 10.4 µM | – |
| Cc1ccc(N2C(=O)N(c3ccc(C)cc3)C3CS(=O)(=O)CC32)cc1 (centres undefined) | inconclusive: 10.4 µM [inhibitor, single point] | – |
| CCC(C)(C(=O)NC1CCCCC1)N(C)C(=O)c1ccc2c(c1)OCO2 (centres undefined) | inconclusive: 18.5 µM [inhibitor, single point] | – |
| CC(NC(=O)CCNS(=O)(=O)c1ccccc1)c1ccccc1 (centres undefined) | inconclusive: 4.15 µM [inhibitor, single point] | – |
| COCCNc1ccc([N+](=O)[O-])cc1C(=O)NC1CCCc2ccccc21 (centres undefined) | inconclusive: 18.5 µM [inhibitor, single point] | – |
| COc1ccc(N2CCN(C(CNC(=O)CC(C)(C)C)c3ccc4c(c3)OCO4)CC2)cc1 (centres undefined) | inconclusive: 0.37 µM [inhibitor, full curve, poor fit] | – |
| O=C(CCSc1nnc(-c2ccncc2)o1)Nc1ccccc1 | – | inactive: -19.5% |
| CCCN1CCN(C(=O)C2CCN(S(=O)(=O)c3c(C)noc3/C=C/c3ccc(C)cc3)CC2)CC1 | inconclusive: 10.4 µM [inhibitor, single point] | – |
| NC(=O)CC(NC(=O)Cc1ccc(Br)cc1)c1ccc(NCCc2cccc(F)c2)c([N+](=O)[O-])c1 (centres undefined) | inconclusive: 13.1 µM [inhibitor, single point] | – |
| CCOC(=O)C(Cc1ccc(NC(=O)/C(=C/c2ccccc2)NC(=O)c2ccccc2)cc1)N1C(=O)c2ccccc2C1=O (centres undefined) | inconclusive: 1.17 µM [inhibitor, partial curve, poor fit] | – |

Reformatted as comma-separated lines: entries from further up.
Structure (SMILES),Potency,"activity change, negative = inhibition"
O=C(COC(=O)CSc1ccc([N+](=O)[O-])cc1)NCCC1=CCCCC1,–,inactive: -3.03%
CCCCOc1ccc2c(C)cc(=O)oc2c1OCCCC,"inconclusive: 10.4 µM [inhibitor, partial curve, poor fit]",–
CCC(C)(C(=O)NC1CCCCC1)N(C)C(=O)c1ccc2c(c1)OCO2 (centres undefined),"inconclusive: 18.5 µM [inhibitor, single point]",–
COc1ccc(N2CCN(C(CNC(=O)CC(C)(C)C)c3ccc4c(c3)OCO4)CC2)cc1 (centres undefined),"inconclusive: 0.37 µM [inhibitor, full curve, poor fit]",–

Later entries.

| Structure (SMILES) | Potency | activity change, negative = inhibition |
| --- | --- | --- |
| Cc1ccc2cc(C)c3nnc(SCc4ccc(C(=O)O)cc4)n3c2c1C | – | inactive: -3.69% |
| CC(=O)c1sc(NC(=O)C2CCN(C(=O)c3ccc(F)cc3)CC2)nc1-c1ccccc1 | inconclusive: 18.5 µM [inhibitor, single point] | – |
| Cc1ccc(NC(=O)CCN2C(=O)NC3(CCCC3)C2=O)cc1S(=O)(=O)N1CCOCC1 | – | inactive: 14.3% |
| O=C(NCCc1ccccc1)C(=O)NCC1OCCN1S(=O)(=O)c1ccc(Br)cc1 (centres undefined) | inconclusive: 18.5 µM [inhibitor, single point] | – |
| Cc1ccc(NC(=O)c2ccccc2)cc1 | – | inactive: 2.96% |
| Cc1ccc(OCC(=O)NCCNC(=O)c2cccnc2)cc1C | – | inactive: 36.1% |
| Cc1ccc(NC(=O)c2cc3ccccc3o2)cc1Cl | inconclusive: 9.28 µM [inhibitor, single point] | – |
| Cc1cc(F)ccc1S(=O)(=O)N1CCCOC1CNC(=O)C(=O)NCCc1c[nH]c2ccccc12 (centres undefined) | active: 9.28 µM | – |
| CCCC[n+]1c(-c2ccc(Cl)cc2Cl)csc1Nc1ccccc1 | active: 1.65 µM | – |
| CCc1ccc(S(=O)(=O)N/N=C\c2ccc([N+](=O)[O-])o2)cc1 | inconclusive: 4.65 µM [inhibitor, partial curve, poor fit] | – |
| Cc1ccccc1Nc1c(F)c(F)c(F)c(F)c1C(=O)O | inconclusive: 1.31 µM [inhibitor, full curve] | – |
| O=S(=O)(c1ccccc1)N1CCC(O)(CSc2ccc(Cl)cc2)CC1 | – | inactive: -1.95% |
| O=C(CSc1nc2cc(Cl)ccc2o1)c1cccs1 | – | inactive: 2.51% |
| COc1ccc(N(CC(=O)Nc2ccc(Cc3ccncc3)cc2)S(=O)(=O)c2ccccc2)cc1 | – | inactive: 3.16% |
| Cc1ccc(OCC(=O)N2CCCCCCC2)cc1 | inconclusive: 18.5 µM [inhibitor, single point] | – |
| NNC(=O)c1cccn(Cc2cccc(C(F)(F)F)c2)c1=O | inconclusive: 18.5 µM [inhibitor, single point] | – |
| COc1ccc(C(=O)NCC(c2cccs2)N2CCc3ccccc32)c(OC)c1 (centres undefined) | active: 5.22 µM | – |
| CN(Cc1ccon1)Cc1cn(C)nc1-c1ccc2c(c1)OCCO2 | – | inactive: 1.07% |
| Cc1cc(N/N=C/c2ccc(O)cc2)c2cccc(C)c2n1 | active: 9.28 µM | – |
| CCOc1cc(-c2c(C)c(CC)nc(N)c2C#N)ccc1O | – | inactive: 5.97% |
| CCCCc1ccc(-c2csc(/C(C#N)=C\c3ccc(C)o3)n2)cc1 | – | inactive: 121% |
| CCOC(=O)N1CCc2c(sc3c2c(=O)n(-c2ccc(CC)cc2)c(=O)n3CC(=O)NCC2CCCO2)C1 (centres undefined) | inconclusive: 13.1 µM [inhibitor, single point] | – |
| CC1(C)Cc2c(sc3c2c(=N)n(Cc2ccco2)c(=O)n3CC(=O)Nc2cccc(Cl)c2)CO1 | active: 10.4 µM | – |
